Source: patent US20050037394
For part of these data: A weaker result is weaker than the reference pair of the same experiment. The exact form of at least one protein or probe is not confirmed.

Experiments:
VEGF = assay: filter binding; conditions: purified recombinant protein, letters built from the parent sequence and the stated change
IgE (Homo sapiens) = assay: filter binding; conditions: 2'-OMe C,U; 2'-OH A,G (cDNA printed, T=U); dominant clone; three other clones bound to a higher extent; purified native protein

GAUCAUGCAUGUGGAUCGCGGAUC [ARC226]: binds (VEGF; 2'-OMe except single 2'-OH G, 3'-inverted dT [2'-OMe at all except 2'-OH G at 11, 3'-inverted dT after nt 24 (not written in sequence)], VEGF aptamer motif common to all 2'-OMe selections).
CGAUAUGCAGUUUGAGAAGUCGCGCAUUCG [ARC225]: binds more weakly (VEGF; 2'-OMe except 2'-OH at positions 7,10,14,16,19,22,24, 3'-inverted dT [2'-OMe at all except 2'-OH at 7,10,14,16,19,22,24, 3'-inverted dT after nt 30 (not written in sequence)], weaker than fully 2'-OMe ARC224, dot-blot in PBS, variant of ARC224).
“GGGAGAGGAGAGAACGUUCUACGAUCUGGGCGAGCCAGUCUGACUGAGGAAGCGCUGUCGAUCGAUCGAUCGAUGAAGGGCG [AMX(123).A1]”: binds (IgE (Homo sapiens)).
